In the assay the target is LeishIF4G3, yeast two-hybrid fusion (not stated (Leishmania; printed accession is of L. major)) (UniProt Q4QEK5). In words: two-hybrid; GAL4-based, yeast YRG-2; SD-2 and SD-3 plates with 1.75 mM 3-amino-1,2,4-triazole; growth without histidine after 4–7 days.

These are yes or no findings as the source states them, for the method shown. Binding can be weak; no strength is given.

With “LeishIF4E4, yeast two-hybrid fusion (from UniProt Q4Q7R3)”, the binding result is listed as “binds”.

For the origin of these results see publication PMC4513851.
